For assay [1], the target named is T1, WWOX, endogenous murine (murine (endogenous in L929R, L929)) (UniProt Q91WL8).
T1 sequence: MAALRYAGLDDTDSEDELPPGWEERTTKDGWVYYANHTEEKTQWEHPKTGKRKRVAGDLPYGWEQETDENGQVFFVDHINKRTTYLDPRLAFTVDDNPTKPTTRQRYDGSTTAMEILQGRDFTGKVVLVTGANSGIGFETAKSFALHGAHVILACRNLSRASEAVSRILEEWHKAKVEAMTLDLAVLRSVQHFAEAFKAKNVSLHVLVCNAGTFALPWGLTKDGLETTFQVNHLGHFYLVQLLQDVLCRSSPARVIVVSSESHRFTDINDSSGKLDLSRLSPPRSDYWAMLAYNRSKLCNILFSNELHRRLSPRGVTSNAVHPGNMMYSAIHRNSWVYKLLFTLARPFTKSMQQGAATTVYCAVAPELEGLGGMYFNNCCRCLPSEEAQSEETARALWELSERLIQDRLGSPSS
Briefly: co-IP; data not shown; THP-1, U937 and TNF-sensitive L929 cells, as for Figure 4F (WWOX antibody, HA 30 min).

Protein sequences, listed by entry. Tags and fused reporters are not part of them. Residues count along the entry.
UniProt P84022: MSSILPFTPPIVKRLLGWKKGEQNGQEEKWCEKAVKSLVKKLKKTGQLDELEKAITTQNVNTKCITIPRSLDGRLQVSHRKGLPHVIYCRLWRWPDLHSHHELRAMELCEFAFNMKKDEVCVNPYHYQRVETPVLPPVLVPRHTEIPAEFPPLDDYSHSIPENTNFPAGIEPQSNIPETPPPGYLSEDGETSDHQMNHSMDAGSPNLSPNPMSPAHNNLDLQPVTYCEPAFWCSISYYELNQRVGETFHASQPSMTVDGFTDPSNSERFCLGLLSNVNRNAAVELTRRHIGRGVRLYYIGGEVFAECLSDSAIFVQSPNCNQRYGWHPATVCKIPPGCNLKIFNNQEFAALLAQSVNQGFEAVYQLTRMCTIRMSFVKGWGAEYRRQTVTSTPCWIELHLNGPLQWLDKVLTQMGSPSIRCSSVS
UniProt P97471, residues 1-391: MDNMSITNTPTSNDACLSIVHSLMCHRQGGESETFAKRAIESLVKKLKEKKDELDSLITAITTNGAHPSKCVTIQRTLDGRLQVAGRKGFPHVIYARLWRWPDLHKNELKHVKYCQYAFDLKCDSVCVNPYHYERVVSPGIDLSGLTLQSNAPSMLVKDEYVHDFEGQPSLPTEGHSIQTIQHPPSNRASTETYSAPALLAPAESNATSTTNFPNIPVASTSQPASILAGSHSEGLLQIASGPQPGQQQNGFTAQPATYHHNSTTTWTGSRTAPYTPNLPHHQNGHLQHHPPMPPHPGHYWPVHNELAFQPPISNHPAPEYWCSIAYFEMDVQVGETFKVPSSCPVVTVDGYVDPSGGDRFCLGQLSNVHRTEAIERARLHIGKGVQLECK

The target of assay [2] is T1, WWOX, endogenous murine (murine (endogenous in L929R, L929)). Briefly: co-IP; immunoprecipitation with WWOX antibody from cytosolic and nuclear fractions of THP-1, U937, Jurkat T and L929R cells, resting or treated with HA (25 μg/ml) for 30 min.
In assay [3] the target is T2, Hyal-2 (hyaluronidase 2), endogenous human (human (endogenous in THP-1, U937, SK-N-SH, Jurkat, MCF7)) (UniProt Q12891).
T2 sequence: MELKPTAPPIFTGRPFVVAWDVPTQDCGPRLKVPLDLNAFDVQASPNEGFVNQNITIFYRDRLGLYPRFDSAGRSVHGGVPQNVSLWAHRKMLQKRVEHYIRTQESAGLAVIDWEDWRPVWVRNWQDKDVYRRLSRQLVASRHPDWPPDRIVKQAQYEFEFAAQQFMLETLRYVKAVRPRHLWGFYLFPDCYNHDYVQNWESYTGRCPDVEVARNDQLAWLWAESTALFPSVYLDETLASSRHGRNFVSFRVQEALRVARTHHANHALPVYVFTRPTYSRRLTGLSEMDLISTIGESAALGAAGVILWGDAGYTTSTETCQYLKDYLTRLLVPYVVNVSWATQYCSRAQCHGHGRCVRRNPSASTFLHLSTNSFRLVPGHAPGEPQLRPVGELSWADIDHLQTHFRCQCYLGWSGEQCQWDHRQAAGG
Briefly: co-IP; MCF7 cells treated with hyaluronidase PH-20 for 1 hr or hyaluronidase-degraded HA; precipitating antibody not stated.

For assay [4], the target named is Smad3, endogenous human (human (endogenous in SK-N-SH)) (UniProt P84022). Briefly: co-IP; immunoprecipitation with Smad3 antibody; SK-N-SH cells, resting or treated with HA (25 μg/ml, 30 min).
For assay [5], the target named is T2, Hyal-2 (hyaluronidase 2), endogenous human (human (endogenous in THP-1, U937, SK-N-SH, Jurkat, MCF7)). Briefly: co-IP; immunoprecipitation with Hyal-2 antibody; cytosolic fraction of SK-N-SH cells and EGFP-expressing COS7 cells, resting or treated with HA (25 μg/ml, 30 min); COS7 also with ectopic EGFP-dn-WW.
In assay [6] the target is murine Smad4 (truncated, 43 kDa), membrane-anchored target (pMyr) (murine) (UniProt P97471). Briefly: two-hybrid; Ras rescue-based cytoplasmic yeast two-hybrid (CytoTrap, Stratagene); Sos-tagged bait in the cytoplasm, myristoylated target on the membrane; growth of cdc25H yeast at 37°C on selective galactose plates.
Assay [7] has as its target T3, WWOX (WW domain-containing oxidoreductase), endogenous human (human (endogenous in THP-1, U937, SK-N-SH, Jurkat, MCF7)) (UniProt Q9NZC7).
T3 sequence: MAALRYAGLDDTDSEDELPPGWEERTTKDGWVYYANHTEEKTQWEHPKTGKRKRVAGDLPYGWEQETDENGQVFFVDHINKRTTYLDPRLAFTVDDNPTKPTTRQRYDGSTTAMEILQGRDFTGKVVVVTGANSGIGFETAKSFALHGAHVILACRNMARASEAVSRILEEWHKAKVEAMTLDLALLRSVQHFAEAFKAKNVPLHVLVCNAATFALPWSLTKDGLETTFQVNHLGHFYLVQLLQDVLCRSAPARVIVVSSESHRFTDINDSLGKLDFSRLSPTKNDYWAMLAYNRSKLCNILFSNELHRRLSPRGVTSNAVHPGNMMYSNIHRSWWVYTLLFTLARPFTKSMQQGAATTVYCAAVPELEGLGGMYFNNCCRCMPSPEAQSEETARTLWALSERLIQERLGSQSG
Briefly: co-IP; data not shown; THP-1, U937 and TNF-sensitive L929 cells, as for Figure 4F (WWOX antibody, HA 30 min).

Assay [8] addresses T3, WWOX (WW domain-containing oxidoreductase), endogenous human (human (endogenous in THP-1, U937, SK-N-SH, Jurkat, MCF7)). Briefly: co-IP; immunoprecipitation with WWOX antibody from cytosolic and nuclear fractions of THP-1, U937, Jurkat T and L929R cells, resting or treated with HA (25 μg/ml) for 30 min.
Assay [9] addresses DsRed-monomer-p53 (not stated (human p53 cloned for the two-hybrid)) (UniProt P04637). Briefly: FRET or BRET; time-lapse tri-molecular FRET microscopy in DU145 cells transiently expressing ECFP-, EGFP- and DsRed-monomer-tagged proteins, stimulated with HA (25 μg/ml); FRETc. A general note: BRET reads energy transfer from a luciferase to a nearby fluorophore.
Assay [10] has as its target human p53, membrane-anchored target (pMyr) (human) (UniProt P04637). Briefly: two-hybrid; Ras rescue-based cytoplasmic yeast two-hybrid (CytoTrap, Stratagene); Sos-tagged bait in the cytoplasm, myristoylated target on the membrane; growth of cdc25H yeast at 37°C on selective galactose plates.
Assay [11] deals with T4, murine Hyal-2, membrane-anchored target (pMyr) (murine) (UniProt O35632).
T4 sequence: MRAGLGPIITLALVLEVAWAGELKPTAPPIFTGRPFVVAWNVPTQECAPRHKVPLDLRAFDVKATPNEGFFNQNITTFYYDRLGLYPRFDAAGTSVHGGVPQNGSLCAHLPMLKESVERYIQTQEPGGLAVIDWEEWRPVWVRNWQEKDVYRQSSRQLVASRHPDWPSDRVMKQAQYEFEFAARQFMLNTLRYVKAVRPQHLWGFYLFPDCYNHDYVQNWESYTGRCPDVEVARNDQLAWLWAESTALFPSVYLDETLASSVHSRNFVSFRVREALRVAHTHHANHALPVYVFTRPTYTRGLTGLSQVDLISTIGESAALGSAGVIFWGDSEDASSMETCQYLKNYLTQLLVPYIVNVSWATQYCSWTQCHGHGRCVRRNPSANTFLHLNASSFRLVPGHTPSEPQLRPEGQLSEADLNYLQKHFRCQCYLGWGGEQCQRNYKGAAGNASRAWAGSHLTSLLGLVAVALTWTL
Briefly: two-hybrid; competitive binding in the Ras rescue yeast two-hybrid: membrane-anchored Hyal-2 (target), constant amount of WWOX (bait), various amounts of Smad4 (competitor) in the cytoplasm; % colony growth at 37°C over 22°C.

Here are results for eight molecules from publication PMC5386674.

Numbering of substitutions follows the chain as printed. Numbers in names are those of the source. These are yes or no findings as the source states them, for the method shown. For some of these results: In cells and extracts the contact can be indirect. Some entries that bind do so weakly or less than the wild type. For some of these results: Tags and fused reporters may be left off the sequences shown.

B1: Hyal-2, endogenous murine (protein, UniProt O35632 21-448)
chain: GELKPTAPPIFTGRPFVVAWNVPTQECAPRHKVPLDLRAFDVKATPNEGFFNQNITTFYYDRLGLYPRFDAAGTSVHGGVPQNGSLCAHLPMLKESVERYIQTQEPGGLAVIDWEEWRPVWVRNWQEKDVYRQSSRQLVASRHPDWPSDRVMKQAQYEFEFAARQFMLNTLRYVKAVRPQHLWGFYLFPDCYNHDYVQNWESYTGRCPDVEVARNDQLAWLWAESTALFPSVYLDETLASSVHSRNFVSFRVREALRVAHTHHANHALPVYVFTRPTYTRGLTGLSQVDLISTIGESAALGSAGVIFWGDSEDASSMETCQYLKNYLTQLLVPYIVNVSWATQYCSWTQCHGHGRCVRRNPSANTFLHLNASSFRLVPGHTPSEPQLRPEGQLSEADLNYLQKHFRCQCYLGWGGEQCQRNYKGAAGN
For the molecule B1, the binding entry in assay [1] and in assay [2] was “binds” throughout.

B2: WWOX (WW domain-containing oxidoreductase), endogenous human (protein, UniProt Q9NZC7 1-414)
chain: T3 sequence
As to B2, the binding entry in assay [3], in assay [4] and in assay [5] was “binds” each time.

B3: murine Hyal-2, membrane-anchored target (pMyr) (protein, UniProt O35632 1-473)
chain: T4 sequence
On to B3, for which, in [6], the binding entry was “no binding”.

B4: Hyal-2 (hyaluronidase 2), endogenous human (protein, UniProt Q12891 21-448)
chain: T2 sequence
With B4, the binding result in assay [7] and in assay [8] was “binds” each time.

B5: WWOXsdr(mito) (the mitochondria-targeting region in the SDR domain of murine WWOX), Sos-tagged bait (domain or fragment, UniProt Q91WL8 209-273)
chain: CNAGTFALPWGLTKDGLETTFQVNHLGHFYLVQLLQDVLCRSSPARVIVVSSESHRFTDINDSSG
On to B5, for which the binding result in assay [6] is “no binding”.

B6: WWOX(K28T/D29V), dominant negative murine WWOX, Sos-tagged bait (protein, UniProt Q91WL8 1-414)
chain: T1 sequence with K28T, D29V
On to B6, for which the binding entry in assay [6] is “binds”.

B7: EGFP-WWOX (murine) (protein, UniProt Q91WL8 1-414)
chain: T1 sequence
As to B7, the binding entry in assay [9] is “binds”.

B8: murine WWOX, Sos-tagged bait (pSos) (protein, UniProt Q91WL8 1-414)
chain: T1 sequence
On to B8, for which the binding result in assay [10] and in assay [11] was “binds” in each case.
